Measured values published in PubChem BioAssay AID624297 (National Center for Advancing Translational Sciences (NCATS), 2012).
The campaign covered roughly 340,000 compounds. About 6,200 (1.8%) were called active. Inconclusive results, whose numbers are uncertain, are shown with a selection of clear calls. Calls come from the whole dose curve; as a rule, active = well fitted activation curve with a large enough effect; inconclusive = small, poorly fitted or top-dose-only effect; inactive = no such curve, though single readings can be large or run the other way. A potency beside an inconclusive call is a rough fit, not a confirmed value.

assay: A quantitative high throughput screen for small molecules that induce DNA re-replication in SW480 colon adenocarcinoma cells.; note: nearly all actives have a fitted effect of over 55% in size; for re-replication activation: % of control where 0% means no effect; settings: Hoechst DNA content imaging, 48 h; re-replication activation: at 46.1 µM (top of the series) unless noted
Outline: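 Image-based read-out: total Hoechst fluorescence of nuclei (405 nm excitation, 500-530 nm emission), with hits raising the fraction of high-intensity nuclei. SW480 colon cells incubated 48 hr with compounds at 37 C.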
Potency is the fitted concentration of half-maximal effect.

Row | SMILES | Potency | re-replication activation
1 | CCS(=O)(=O)c1ccc(-c2cccc(NC(=O)c3ccco3)c2)nn1 | inactive | –
2 | CN1CCN(CC(=O)N2CCn3c4c(c5cc(C6CCCCC6)ccc53)CCCC42)CC1 (stereo not given) | inactive | –
3 | O=C1C2CCCCN2C(=O)N1CCN1CCN(c2ccc(F)cc2)CC1 (stereo not given) | – | inactive: -25% [at 1.84 µM]
4 | CCC(=O)c1ccc(OCC(O)CN(CCc2ccccc2)Cc2ccccc2)cc1 (stereo not given) | inconclusive: 29.1 µM [activator, single point] | –
5 | O=C(Nc1ccccc1)C1=C[C@H](c2ccc3c(c2)OCO3)C[C@H](OCc2ccc(CO)cc2)O1 | inconclusive: 29.1 µM [activator, partial curve, poor fit] | –
6 | O=C(Nc1cccc(F)c1)[C@@H]1CCCN1 | inconclusive: 29.1 µM [activator, single point] | –
7 | COc1cc(C(=O)Nc2nc3ccc(S(=O)(=O)N4CCOCC4)cc3s2)cc(OC)c1OC | inconclusive: 6.51 µM [activator, single point] | –
8 | O=C(CSc1nc2c(c(C(F)(F)F)n1)CCc1ccccc1-2)NCc1ccco1 | inconclusive: 29.1 µM [activator, single point] | –
9 | CCOC(=O)N1CCN(C(=O)C(=O)Nc2sc3c(c2C(=O)O)CC(C)(C)OC3)CC1 | inconclusive: 25.9 µM [activator, partial curve, poor fit] | –
10 | O=C1Cc2cc(NS(=O)(=O)c3ccc(F)cc3)cc3c2N1CCC3 | inconclusive: 0.651 µM [activator, partial curve, poor fit] | –
11 | COc1ccc2nc(C(F)(F)Cl)c(C#N)c(N)c2c1 | inconclusive: 29.1 µM [activator, single point] | –
12 | O=Cc1cc(CCC(=O)O)ccc1O | inconclusive: 0.461 µM [activator, single point] | –
13 | CC(=O)c1ccc(NC(=O)C(C)OC(=O)/C=C/c2ccco2)cc1 (stereo not given) | inconclusive: 29.1 µM [activator, single point] | –
14 | COc1cccc(N2CCN(C(=O)c3cc4c(=O)n(Cc5ccccc5)ccc4nc3C)CC2)c1 | inactive | –
15 | COc1ccc(OC)c(S(=O)(=O)NC2CC(=O)N(c3cccc(F)c3)C2)c1 (stereo not given) | active: 6.51 µM | –
16 | O=C(C[C@@H]1C/C=C\C[C@@H](Cc2ccc(F)cc2)C(=O)OCCNC1=O)N[C@H](CO)Cc1ccccc1 | inconclusive: 29.1 µM [activator, single point] | –
17 | CCc1cc(C(=O)NNC(=S)Nc2ccccc2C)cs1 | inconclusive: 29.1 µM [activator, single point] | –
18 | CCN1CCN(CCCNC(=O)c2ccc3c(c2)N(Cc2ccccc2)CCS3)CC1 | inconclusive: 29.1 µM [activator, single point] | –
19 | CN(C)S(=O)(=O)N1CCC(Oc2ccc(C(=O)N3C[C@@H]4CCC[C@H]3C4)cc2)CC1 | inactive | –
20 | Cc1ccc(C(=O)N[C@H](C(=O)NC2CCCCC2)C(C)C)cc1 | inactive | –
21 | COCCn1c(SCC(=O)NCc2ccc(OC)c(OC)c2)nc2ccccc21 | inactive | –
22 | CC1(c2ccccc2)NC(=O)N(CC(=O)Nc2nc(-c3ccccn3)cs2)C1=O (stereo not given) | inconclusive: 20.6 µM [activator, single point] | –

Row | SMILES | Potency | re-replication activation
23 | COc1ccc(S(=O)(=O)N2CCN(C)CC2)c(C)c1 | inconclusive: 18.4 µM [activator, single point] | –
24 | COc1ccc(Br)cc1CN(C)C(=O)CNC(=O)c1ccc2ccccc2c1 | inactive | –
25 | NC(=O)c1nsnc1-c1ccccc1O | inactive | –
26 | CC(C)Cn1c2c(c(O)c(C(=O)Nc3nccs3)c1=O)CCCC2 | inconclusive: 6.51 µM [activator, single point] | –
27 | O=C1/C(=C\c2c(NCCOCCO)nc3ccccn3c2=O)SC(=S)N1Cc1ccco1 | – | inactive: -34.5% [at 1.84 µM]
28 | O=C(Nc1cccc(C(F)(F)F)c1)OCCN1CCN(Cc2ccccc2)CCC1=O | – | inactive: -11.8% [at 9.22 µM]
29 | Clc1ccc(OCc2nc3ccccc3[nH]2)cc1 | inactive | –
30 | COc1cccc(C(=O)N/N=C/c2ccc(OC)c(COc3ccccc3C(N)=O)c2)c1 | active: 16.4 µM | –
31 | CCc1ccc(N/C(N)=N/c2nc(CSc3ccccn3)cc(=O)[nH]2)cc1 | inconclusive: 20.6 µM [activator, single point] | –
32 | O=C(CCN1C(=O)/C(=C/c2ccccc2Cl)SC1=S)N1CCOCC1 | inconclusive: 4.61 µM [activator, full curve, poor fit] | –
33 | COc1ccc(/C=N/NC(=O)c2ccc(F)cc2)cc1CN1CCc2cc(OC)c(OC)cc2C1C (stereo not given) | inconclusive: 29.1 µM [activator, single point] | –
34 | COC(=O)c1cc(NC(=O)c2cc(-c3ccccc3Cl)oc2C(F)(F)F)ccc1N1CCOCC1 | inconclusive: 29.1 µM [activator, single point] | –
35 | Cc1ccc(C)c(Oc2cc(NC(=O)CCCn3nc(C)c([N+](=O)[O-])c3C)cc([N+](=O)[O-])c2)c1 | inconclusive: 29.1 µM [activator, single point] | –
36 | CCC(CC)C(=O)c1c[nH]c(C(=O)NN)c1 | inconclusive: 18.4 µM [activator, single point] | –
37 | COC(=O)c1cc(C#N)c(Oc2ccccc2OC)nc1C | inconclusive: 25.9 µM [activator, partial curve, poor fit] | –
38 | NC(=O)C1CC(=O)N(c2ccc(OCc3ccc(Cl)cc3)cc2)C1 (stereo not given) | inconclusive: 0.082 µM [activator, full curve, poor fit] | –
39 | O=C(Nc1cc(=O)[nH]c2nc(-c3ccc(Cl)cc3)nn12)c1ccccc1 | inconclusive: 6.51 µM [activator, single point] | –
40 | Cc1cc(C)n(-c2ccc(NC(=O)C3CCCCN3Cc3cccc4c3OCO4)cc2)n1 (stereo not given) | inconclusive: 29.1 µM [activator, single point] | –
41 | CS(=O)(=O)NN1C(=O)c2ccccc2NC12CCCC2 | inconclusive: 29.1 µM [activator, single point] | –
42 | COc1ccc2c(c1)OC(=O)CC2c1cc(OC)c(OC)c(OC)c1 (stereo not given) | inconclusive: 29.1 µM [activator, single point] | –
43 | COc1ccc(OC)c(C(C[N+](=O)[O-])c2c(C)cc3ccccn23)c1 (stereo not given) | inconclusive: 14.6 µM [activator, partial curve, poor fit] | –
44 | COc1ccc2[nH]c(C)c(CCNC(=S)Nc3cccc(C)c3)c2c1 | inconclusive: 29.1 µM [activator, single point] | –

Row | SMILES | Potency | re-replication activation
45 | Cc1ccc(NC(=O)CSc2nnc(-c3cnccn3)n2-c2ccccc2)cc1 | inactive | –
46 | Brc1ccc(OCc2ccccc2)c(CNCc2ccncc2)c1 | inconclusive: 18.4 µM [activator, single point] | –
47 | COc1ccc(Nc2cc(C(=O)N3CCc4ccccc4C3)c3ccccc3n2)c(OC)c1 | inconclusive: 29.1 µM [activator, single point] | –
48 | COc1ccc(C2(C)NC(=O)N(CC(=O)Nc3ccc4[nH]c(=O)[nH]c4c3)C2=O)cc1 (stereo not given) | inconclusive: 7.31 µM [activator, partial curve, poor fit] | –
49 | COc1ccccc1NC(=O)c1c(Br)cnn1C | inconclusive: 29.1 µM [activator, partial curve, poor fit] | –
50 | Cc1ccc(S(=O)(=O)NCCC(=O)Nc2ccc3c(c2)OCO3)cc1 | inconclusive: 29.1 µM [activator, single point] | –
51 | Cc1cc(C(=O)CN2C(=O)NC3(CCCC3)C2=O)c(C)n1-c1ccc2c(c1)OCO2 | inactive | –
52 | CCNC(=S)N/N=C/c1sc(N2CCCCC2)nc1-c1cccs1 | inconclusive: 18.4 µM [activator, single point] | –
53 | CCN(CCNC(=O)CS(=O)(=O)Cc1nc(-c2cccc(OC)c2)oc1C)c1ccccc1 | inactive | –
54 | O=C(O)C1(O)C[C@@H](O)C(O)[C@H](O)C1 (stereo not given in full) | inconclusive: 18.4 µM [activator, single point] | –
55 | CN1/C(=C\P(=O)(N(C)C)N(C)C)C(C)(C)c2ccccc21 | inconclusive: 29.1 µM [activator, partial curve, poor fit] | –
56 | CC(=O)OCC(=O)[C@@]1(O)CC[C@H]2[C@@H]3CCC4=CC(=O)C=C[C@]4(C)[C@@]3(Cl)[C@@H](Cl)C[C@@]21C | inactive | –
57 | Cc1ccccc1OCC(=O)N/N=C/c1cccc(Oc2ccc([N+](=O)[O-])cc2[N+](=O)[O-])c1 | inconclusive: 29.1 µM [activator, single point] | –
58 | CC(OC(=O)c1cccc(-n2cnnn2)c1)c1nc2ccccc2c(=O)[nH]1 (stereo not given) | inconclusive: 18.4 µM [activator, single point] | –
59 | CCOC(=O)CNC(=O)C1CCC(CNS(=O)(=O)c2cccc3nsnc23)CC1 (stereo not given) | inconclusive: 2.31 µM [activator, single point] | –
60 | COc1ccc2c3c([nH]c2c1)[C@H]1C[C@H]2[C@H](C[C@@H](O)[C@H](OC)[C@H]2C(=O)O)CN1CC3 | inconclusive: 29.1 µM [activator, single point] | –
61 | COc1ccc(NC(=O)/C=C/c2cc(OC)c(OC)c(OC)c2)cn1 | inactive | –
62 | Cc1ccc(C(=O)NCCCN2CCOCC2)c(Cl)c1 | inactive | –
63 | CCSC1=C(C#N)C(c2cccc(Br)c2)CC(=O)N1 (stereo not given) | inconclusive: 20.6 µM [activator, single point] | –
64 | Cc1cc(F)ccc1S(=O)(=O)N1CCCOC1CNC(=O)C(=O)NCCc1ccccc1 (stereo not given) | inactive | –
65 | COc1ccc(NC(=S)N2CCN(S(=O)(=O)c3ccccc3)CC2)cc1OC | inconclusive: 0.184 µM [activator, full curve, poor fit] | –

Three structures from above, sorted by heavy-atom count, smallest number first:
Row | SMILES | Potency | re-replication activation
45 | Cc1ccc(NC(=O)CSc2nnc(-c3cnccn3)n2-c2ccccc2)cc1 | inactive | –
7 | COc1cc(C(=O)Nc2nc3ccc(S(=O)(=O)N4CCOCC4)cc3s2)cc(OC)c1OC | inconclusive: 6.51 µM [activator, single point] | –
14 | COc1cccc(N2CCN(C(=O)c3cc4c(=O)n(Cc5ccccc5)ccc4nc3C)CC2)c1 | inactive | –
